According to patent US8828696B2, “Use of Penicillin G Procaine as a selective antimicrobial agent in the production of alcohol by fermentation” (Lallemand Specialites, Inc, priority 2008, dated 2014):

Experiment: Residual level detection in post fermentation derivatives (Central Analytical Laboratories)
Settings: introduced at 0.785 ppm, detection level 1.5 ppm minimum

Row | Compound | residual level of antibiotic (Centrifuge Solid) | residual level of antibiotic (DDGS) | residual level of antibiotic (Syrup) | residual level of antibiotic (WDGS)
1 | CC1(C)S[C@@H]2[C@H](NC(=O)Cc3ccccc3)C(=O)N2[C@H]1C(=O)O.CCN(CC)CCOC(=O)c1ccc(N)cc1 [Penicillin G Procaine] | None detected | None detected | None detected | None detected
2 | Virginiamycin | None detected** | None detected | 3.3 ppm | 2.8 ppm
